Here are results for three substances from paper PMC11240526.

Amino acid sequences for entries named in this document (tags omitted). Residues count along the entry.
UniProt P40259, residues 29-229: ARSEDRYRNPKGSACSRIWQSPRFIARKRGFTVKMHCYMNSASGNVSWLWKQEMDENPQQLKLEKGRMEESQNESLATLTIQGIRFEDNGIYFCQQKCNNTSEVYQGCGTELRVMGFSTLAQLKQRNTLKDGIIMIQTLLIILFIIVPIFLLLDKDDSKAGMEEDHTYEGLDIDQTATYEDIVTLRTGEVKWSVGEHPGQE
UniProt P11912, residues 33-226: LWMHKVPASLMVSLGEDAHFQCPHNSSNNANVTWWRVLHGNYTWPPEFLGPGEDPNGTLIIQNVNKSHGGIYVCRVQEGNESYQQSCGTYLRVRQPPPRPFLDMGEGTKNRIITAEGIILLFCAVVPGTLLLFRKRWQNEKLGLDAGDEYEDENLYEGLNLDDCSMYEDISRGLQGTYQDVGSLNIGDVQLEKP

Results are given in words; binding and its absence hold for the method and conditions named. In cells and extracts the contact can be indirect. Some results given as binding are weak or reduced against the parent protein; the word gives no strength.

For experiment [1], the target named is CD79b (human (endogenous in Raji)) (UniProt P40259). In words: co-IP; antibody to the bait (anti-CD79a, anti-CD79b or anti-IgM) with Protein G agarose beads; Raji membrane fraction solubilised in 1% Triton X-100 lysis buffer in PBS; overnight at 4 °C; bead eluate read by Western blot, band intensities normalised to protein load. (In general: In western blotting, separated proteins are transferred to a membrane and probed.)

Experiment [2] deals with CD79a of the OSU-CLL cell line (human (endogenous in OSU-CLL)) (UniProt P11912). In words: co-IP; anti-CD79a with Protein G agarose beads; OSU-CLL cell line membrane fraction; Western blot (Figure S3).
The target of experiment [3] is CD79a (human (endogenous in Raji)) (UniProt P11912). Nature of the experiment: co-IP; anti-CD79a with Protein G agarose beads; Raji membrane fraction solubilised in 0.5% DOC buffer (10 mM Tris pH 7.5); bead eluate read by Western blot.

With CD79a (from UniProt P11912 33-226), in experiment [1], the binding entry was “binds weakly”.

Take “CD79b of the OSU-CLL cell line (from UniProt P40259 29-229)”: the binding entry in experiment [2] is recorded as “binds”.

On to CD79b (from UniProt P40259 29-229), for which the binding result in experiment [3] was “binds”.
